{
  "source": "paper PMC7106964",
  "molecules": {"B1": {"name": "NONO (protein, UniProt Q15233 1-471)", "chain": "MQSNKTFNLEKQNHTPRKHHQHHHQQQHHQQQQQQPPPPPIPANGQQASSQNEGLTIDLKNFRKPGEKTFTQRSRLFVGNLPPDITEEEMRKLFEKYGKAGEVFIHKDKGFGFIRLETRTLAEIAKVELDNMPLRGKQLRVRFACHSASLTVRNLPQYVSNELLEEAFSVFGQVERAVVIVDDRGRPSGKGIVEFSGKPAARKALDRCSEGSFLLTTFPRPVTVEPMDQLDDEEGLPEKLVIKNQQFHKEREQPPRFAQPGSFEYEYAMRWKALIEMEKQQQDQVDRNIKEAREKLEMEMEAARHEHQVMLMRQDLMRRQEELRRMEELHNQEVQKRKQLELRQEEERRRREEEMRRQQEEMMRRQQEGFKGTFPDAREQEIRMGQMAMGGAMGINNRGAMPPAPVPAGTPAPPGPATMMPDGTLGLTPPTTERFGQAATMEGIGAIGGTPPAFNRAAPGAEFAPNKRRRY"}},
  "molecular_target": "T1, GFP‐tagged RNF8 (UniProt O76064)",
  "T1 sequence": "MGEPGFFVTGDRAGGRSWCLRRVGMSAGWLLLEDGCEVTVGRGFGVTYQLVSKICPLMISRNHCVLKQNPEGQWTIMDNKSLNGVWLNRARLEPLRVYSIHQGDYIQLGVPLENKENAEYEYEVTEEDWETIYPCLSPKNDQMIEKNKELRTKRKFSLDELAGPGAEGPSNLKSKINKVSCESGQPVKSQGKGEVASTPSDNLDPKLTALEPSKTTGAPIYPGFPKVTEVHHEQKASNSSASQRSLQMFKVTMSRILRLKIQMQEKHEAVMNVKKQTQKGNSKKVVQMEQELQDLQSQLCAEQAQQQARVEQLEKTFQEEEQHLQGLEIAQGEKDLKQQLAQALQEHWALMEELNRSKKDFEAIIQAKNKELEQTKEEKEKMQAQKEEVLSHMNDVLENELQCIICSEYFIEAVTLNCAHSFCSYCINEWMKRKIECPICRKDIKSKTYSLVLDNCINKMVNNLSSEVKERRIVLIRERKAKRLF",
  "experiment": "affinity purification with mass spectrometry; GFP-tagged RNF8 expressed in HEK-293T cells, RNF8 complexes isolated, SDS-PAGE bands (coomassie) analysed by mass spectrometry",
  "note": "No constants are given. Whether binding was seen depends on the method and setting. Binding seen in cells or lysates may run through a third protein. These calls come from enrichment with a bait or labelling near it, and not all partners need be listed. Where a sequence is shown, tags or fusion partners need not be part of it.",
  "data": [
    {"molecule": "p53 (endogenous, found in the GFP-RNF8 complex) (from UniProt P04637 1-393)", "values": [
      {"measurement": "binding", "value": "binds"}
    ]},
    {"molecule": "B1", "values": [
      {"measurement": "binding", "value": "binds"}
    ]}
  ]
}
